# Among all 320,000 compounds or so, about 620 (0.19%) were called active. The inconclusive results got no clear call from the source; some entries with a clear call stand among them for comparison. Cut-off read from the data, not from the text of the source: active = activation above about 80%; inconclusive = between about 30% and that limit; inactive = weaker than that.
# Amino acid sequences for entries named in this document (tags omitted).
# UniProt Q8NER1, whole entry, looked up: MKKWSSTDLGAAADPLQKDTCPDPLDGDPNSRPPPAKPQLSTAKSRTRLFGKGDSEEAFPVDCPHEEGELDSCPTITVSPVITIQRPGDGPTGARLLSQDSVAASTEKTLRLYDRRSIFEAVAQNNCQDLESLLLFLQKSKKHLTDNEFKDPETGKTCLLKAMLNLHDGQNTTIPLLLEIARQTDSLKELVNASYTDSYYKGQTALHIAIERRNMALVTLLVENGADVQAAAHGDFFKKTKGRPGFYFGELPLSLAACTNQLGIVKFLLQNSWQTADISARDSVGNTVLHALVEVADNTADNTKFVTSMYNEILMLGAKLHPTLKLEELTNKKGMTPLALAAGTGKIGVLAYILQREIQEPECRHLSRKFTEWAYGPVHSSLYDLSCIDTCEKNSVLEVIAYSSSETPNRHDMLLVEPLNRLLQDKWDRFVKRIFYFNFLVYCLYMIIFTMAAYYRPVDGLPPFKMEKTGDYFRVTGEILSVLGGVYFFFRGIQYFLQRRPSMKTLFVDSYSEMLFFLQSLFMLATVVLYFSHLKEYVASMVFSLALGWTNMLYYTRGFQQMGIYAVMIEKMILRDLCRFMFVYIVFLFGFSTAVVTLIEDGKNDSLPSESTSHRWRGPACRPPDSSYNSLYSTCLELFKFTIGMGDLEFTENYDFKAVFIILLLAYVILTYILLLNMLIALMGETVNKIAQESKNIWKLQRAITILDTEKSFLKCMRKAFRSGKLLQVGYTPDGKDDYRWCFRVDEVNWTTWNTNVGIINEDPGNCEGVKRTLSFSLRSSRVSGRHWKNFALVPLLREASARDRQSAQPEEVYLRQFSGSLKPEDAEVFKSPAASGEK
# Molecular target: Transient receptor potential cation channel subfamily V member 1 (Homo sapiens) (UniProt Q8NER1)
# Assay: HTS Assay for Compounds that Act as Agonists of the Vanilloid Receptor 1; note: 0% is about no effect
# Conditions: TRPV1-expressing cells, Fluo-8 calcium influx, agonist mode; at 8.33 µM, active compounds read high
# Summary of the method: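 TRPV1-expressing cells were cultured overnight at 35.5C and loaded with Fluo-8 calcium dye for 40 to 90 min at room temperature. After a 10 s baseline, compound was added and calcium influx was read kinetically for 3 min (ex 480/em 520 nm).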
row,Structure (SMILES),activation
1,COc1cc(CNc2nnnn2C)ccc1OCc1c(F)cccc1Cl,inconclusive: 61.2%
2,O=C(Oc1ccc2c(c1)O/C(=C\c1ccncc1)C2=O)c1cccs1,inactive: -9.05%
3,CNC(=S)NCCc1ccccc1,inactive: -1.31%
4,Cc1ccc(SCC(=O)Nc2nccs2)cc1,inconclusive: 33%
5,N=c1c(S(=O)(=O)c2ccc(Cl)cc2)cc2c(=O)n3ccccc3nc2n1CCc1ccccc1,inconclusive: 47.5%
6,COc1cccc(CNC(=O)c2cccc(S(=O)(=O)N3CCN(c4ccc(F)cc4)CC3)c2)c1,inactive: 2.81%
7,Cc1ccc(NC(=O)c2ccc(C)cc2)cc1,active: 80.9%
8,C(=C\c1nccc2c1[nH]c1ccccc12)/c1ccccc1,inconclusive: 61.9%
9,NS(=O)(=O)c1ccc(NC(=O)CSc2nc3ccccc3nc2N2CCOCC2)cc1,inconclusive: 49.4%
10,O=C(NCCOc1ccccc1)c1cc2ccccc2o1,inconclusive: 51.2%
11,COc1ccccc1NC(=O)Cc1cccs1,inactive: 5.44%
12,COC(=O)c1c(C)[nH]c(C(=O)CN(C)CC(=O)Nc2cccc(F)c2)c1C,inconclusive: 33.3%
13,Cc1ccnc(NC(=O)CNC(=O)c2ccc3ccccc3c2)c1,inactive: 7.59%
14,C#CCNC(=O)C1=C[C@@H](C2CCCCC2)C[C@@H](OCc2ccc(CO)cc2)O1,inactive: 14.7%
15,O=C(N/N=C\c1ccc2c(c1)OCO2)c1ccc(Cn2cc(Br)c([N+](=O)[O-])n2)o1,inconclusive: 33.8%
16,COCCn1c(SCC(=O)N2CCCCCC2)nc2c([nH]c3ccccc32)c1=O,inconclusive: 38.4%
17,Cc1cccc(NS(=O)(=O)c2cc(C(=O)NCCC3=CCCCC3)ccc2Cl)c1,inactive: -0.388%
18,c1ccc(N/N=C2\CCCc3ccccc32)nc1,inconclusive: 37.7%
19,O=C(Nc1ccccc1)c1cccc(S(=O)(=O)N2CCCCC2)c1,inconclusive: 41.4%
20,CN(CCC#N)C(=O)COC(=O)c1ccc(Cl)cc1O,inactive: -0.555%
21,COc1ccc(NC(=O)CSc2nnc(-c3ccccc3)n2Cc2ccco2)cc1OC,inconclusive: 42.7%
22,Cc1ccc(NC(=O)c2cc3c(s2)CCC3)cc1S(=O)(=O)N1CCOCC1,inconclusive: 66.8%
23,Cc1ccc(Nc2cc(C)nc(N3CCOCC3)n2)c(C)c1,inconclusive: 32.8%

row,Structure (SMILES),activation
1,CC(C)(C)c1ccc(OCc2ccc(C(=O)Nc3cccnc3)o2)cc1,inconclusive: 47.7%
2,CCc1cc2c(=O)c(-c3nc4ccccc4[nH]3)coc2c(CN2CCCCC2C)c1O (stereo not given),inconclusive: 31.9%
3,N#C/C(=C\c1cccc(Oc2ccccc2)c1)C(=O)N1CCOCC1,inconclusive: 62.6%
4,O=C(CCCn1c(=O)[nH]c2ccccc2c1=O)N1CCN(c2ccccn2)CC1,inactive: 2.53%
5,COc1ccc(OCC(O)CN2CCNCC2)cc1 (stereo not given),inactive: -0.209%
6,CCCCSc1nnc2n(CCc3ccccc3)c(=O)c3c4c(sc3n12)COC(C)(C)C4,inconclusive: 33.6%
7,Cc1c(Cl)cccc1NC(=O)CCS(=O)(=O)c1cccc2nonc12,inconclusive: 38.2%
8,CC(=O)N1CCN(c2cc(N3CCc4ccccc4C3)c(F)cc2[N+](=O)[O-])CC1,inconclusive: 55.2%
9,COc1ccc(NC(=O)NC23CC4CC(CC(C4)C2)C3)cc1OC,inconclusive: 47.6%
10,O=C(Cn1nc(-c2ccc(Cl)cc2)ccc1=O)NCCCN1CCN(Cc2ccccc2)CC1,inactive: -1.73%
11,CCOc1ccc(N=C2NC(=O)S/C2=C\c2ccc(Cl)cc2)cc1,inactive: 1.8%
12,CCn1c(COc2ccc(Cl)cc2)nnc1SCc1ccc(C#N)cc1,inconclusive: 43.6%
13,CN(C)C(=O)CSc1nc(-c2ccccc2)nc2c1CCCC2,inconclusive: 42.9%
14,COc1ccc(CCNC(=O)C2CCN(Cc3nc(-c4ccccc4C)oc3C)CC2)cc1OC,inactive: 0.0011%
15,Cc1cc(C)cc(N(CC(=O)NCc2ccco2)C(=O)CCC(=O)Nc2nccs2)c1,inactive: 1.41%
16,COc1ccc(CCn2c(=N)c(S(=O)(=O)c3ccc(C)cc3)cc3c(=O)n4ccccc4nc32)cc1,inconclusive: 53.5%
17,O=C(CCC1CCCCC1)Nc1cccnc1,inconclusive: 67.3%
18,O=C(Nc1ccccc1N1CCCCC1)c1ccc2nccnc2c1,inconclusive: 40.1%
19,O=C1/C(=C\c2ccc(Br)o2)Cc2ccccc21,inconclusive: 33.3%
20,O=C(/C=C/c1ccc(F)cc1)N1CCc2ccccc2C1,inconclusive: 65.3%
21,C=CCn1c(SCC(=O)NC2CCCC2)nc2scc(-c3ccco3)c2c1=O,inconclusive: 32.8%
22,Cc1ccc(-c2nc(CSCC(=O)N3CCN(c4ccccn4)CC3)c(C)o2)cc1,inconclusive: 31.5%
23,S=C(NCc1ccccc1)Nc1ccc(Cl)cc1,inconclusive: 56.7%

row,Structure (SMILES),activation
1,CCCc1ccccc1OCCNC(C)=O,inconclusive: 31.1%
2,COc1ccc(Cl)cc1NC(=O)CN(C)C(=O)c1ccc(N2CCCCC2)c([N+](=O)[O-])c1,inactive: 2.13%
3,O=C(CCCc1c[nH]c2ccccc12)NCc1ccc2c(c1)OCO2,inconclusive: 44.9%
4,S=C(NCc1ccc(Cl)c(Cl)c1)Nc1ccc2c(c1)OCO2,inactive: 13%
5,COc1cc(C(=O)NCC2CCCO2)cc(Br)c1OCc1ccccc1 (stereo not given),inconclusive: 64.6%
6,CCOC(=O)C1(Cc2cccc(OC)c2)CCN(Cc2cc(OC)ccc2OC)CC1,inactive: 3.42%
7,Cc1nn(C)cc1S(=O)(=O)Nc1ncccn1,inconclusive: 71.6%
8,CCOC(=O)CSC1=C(C#N)C(c2ccccc2Cl)C(C(=O)OC)C(=O)N1 (stereo not given),inactive: 0.584%
9,CCC(C(=O)NCc1ccccc1OC)c1ccccc1 (stereo not given),inconclusive: 34.9%
10,COc1ccc(CN2CC(=O)N(c3cc(Cl)ccc3C)C2=S)cc1OC,inconclusive: 72.4%
11,COc1ccccc1NS(=O)(=O)c1cccc(C(=O)NC2CCN(Cc3ccccc3)CC2)c1,inactive: 25.5%
12,Cc1ccc(NS(=O)(=O)c2ccc3c(c2)NC(=O)CCS3)cc1F,inconclusive: 46%
13,COC(=O)c1ccc(NC(=O)NC2CCCCC2)cc1,inconclusive: 59.8%
14,COc1ccccc1Nc1nc(N)nc(CN2CCN(c3ccccc3F)CC2)n1,inactive: -5.21%
15,CC1CCCN(S(=O)(=O)c2ccc(C(=O)Nc3nnc(-c4ccco4)o3)cc2)C1 (stereo not given),inactive: 3.14%
16,COc1cccc(CN(C)CC(=O)Nc2cccc3ccccc23)c1,inconclusive: 33.5%
17,COc1c(OC(C)=O)ccc(/C=C/c2ccc3cccc(OC)c3n2)c1[N+](=O)[O-],inactive: 5.71%
18,COc1cc(/C=C/C(=O)N2CCc3ccccc3C2)cc(OC)c1OC,inconclusive: 30.1%
19,CC1CCCC(NC(=O)COC(=O)c2ccccc2Sc2ccccc2C#N)C1C (stereo not given),inactive: 2.35%
20,O=C(NCc1cccc(Cl)c1)c1ccc2c(c1)OCCO2,inconclusive: 40.4%
21,COc1ccc2nc(SCC(=O)NC3CCCCC3)[nH]c2c1,inconclusive: 32%
22,CCN1CCc2c(sc(NC(=O)c3ccc(S(=O)(=O)N4CCCC4)cc3)c2C(=O)NC)C1,inactive: 0.987%
23,CCN(c1ccccc1)S(=O)(=O)c1cc(C(=O)NCc2ccccn2)ccc1C,inconclusive: 50.4%

# Ordered by length of the SMILES (descending): 21 of the compounds above
row,Structure (SMILES),activation
2,COc1ccc(Cl)cc1NC(=O)CN(C)C(=O)c1ccc(N2CCCCC2)c([N+](=O)[O-])c1,inactive: 2.13%
22,CCN1CCc2c(sc(NC(=O)c3ccc(S(=O)(=O)N4CCCC4)cc3)c2C(=O)NC)C1,inactive: 0.987%
17,COc1c(OC(C)=O)ccc(/C=C/c2ccc3cccc(OC)c3n2)c1[N+](=O)[O-],inactive: 5.71%
11,COc1ccccc1NS(=O)(=O)c1cccc(C(=O)NC2CCN(Cc3ccccc3)CC2)c1,inactive: 25.5%
15,CC1CCCN(S(=O)(=O)c2ccc(C(=O)Nc3nnc(-c4ccco4)o3)cc2)C1 (stereo not given),inactive: 3.14%
8,CCOC(=O)CSC1=C(C#N)C(c2ccccc2Cl)C(C(=O)OC)C(=O)N1 (stereo not given),inactive: 0.584%
6,CCOC(=O)C1(Cc2cccc(OC)c2)CCN(Cc2cc(OC)ccc2OC)CC1,inactive: 3.42%
19,CC1CCCC(NC(=O)COC(=O)c2ccccc2Sc2ccccc2C#N)C1C (stereo not given),inactive: 2.35%
14,COc1ccccc1Nc1nc(N)nc(CN2CCN(c3ccccc3F)CC2)n1,inactive: -5.21%
10,COc1ccc(CN2CC(=O)N(c3cc(Cl)ccc3C)C2=S)cc1OC,inconclusive: 72.4%
18,COc1cc(/C=C/C(=O)N2CCc3ccccc3C2)cc(OC)c1OC,inconclusive: 30.1%
3,O=C(CCCc1c[nH]c2ccccc12)NCc1ccc2c(c1)OCO2,inconclusive: 44.9%
5,COc1cc(C(=O)NCC2CCCO2)cc(Br)c1OCc1ccccc1 (stereo not given),inconclusive: 64.6%
16,COc1cccc(CN(C)CC(=O)Nc2cccc3ccccc23)c1,inconclusive: 33.5%
21,COc1ccc2nc(SCC(=O)NC3CCCCC3)[nH]c2c1,inconclusive: 32%
20,O=C(NCc1cccc(Cl)c1)c1ccc2c(c1)OCCO2,inconclusive: 40.4%
13,COC(=O)c1ccc(NC(=O)NC2CCCCC2)cc1,inconclusive: 59.8%
9,CCC(C(=O)NCc1ccccc1OC)c1ccccc1 (stereo not given),inconclusive: 34.9%
7,Cc1nn(C)cc1S(=O)(=O)Nc1ncccn1,inconclusive: 71.6%
23,S=C(NCc1ccccc1)Nc1ccc(Cl)cc1,inconclusive: 56.7%
1,CCCc1ccccc1OCCNC(C)=O,inconclusive: 31.1%

# (continued)

row,Structure (SMILES),activation
1,Cc1ccc(OCCC(=O)Nc2ccc(C)c(F)c2)cc1,inconclusive: 51.3%
2,Cc1ccc(Cl)cc1N1CCN(C(=O)CCCn2c(=O)c3cccn3c3cccnc32)CC1,inactive: -2.02%
3,Cc1ccc(N2Cc3ccccc3C2=O)cc1,inconclusive: 55.9%
4,Cn1ncc([N+](=O)[O-])c1C(=O)Nc1nc2ccccc2n1CCN1CCCCC1,inactive: 6.83%
5,CCOC(=O)Cc1c(C)nc2c(-c3ccccc3)c(-c3ccccc3)[nH]n2c1=O,inactive: 5.15%
6,O=C(C1COc2ccccc2O1)N1CCN(Cc2ccc3c(c2)OCO3)CC1 (stereo not given),inconclusive: 39.6%
7,CC1CCCC(NC(=O)C2CCN(S(=O)(=O)N3CCCCC3)CC2)C1C (stereo not given),inactive: 10.1%
8,CN(C)S(=O)(=O)c1cccc(NC(=S)N/N=C/c2cc(Br)ccc2O)c1,inactive: 3.09%
9,COCCn1c(N)c(C(=O)NS(=O)(=O)c2ccc(C)cc2)c(=O)[nH]c1=O,inactive: 0.666%
10,CCOC(=O)C1CCN(C(C(=O)Nc2ccc3c(c2)OCCO3)c2ccccc2)CC1 (stereo not given),inconclusive: 35.1%
11,CCC1CCCCN1c1cc(C)nc2cc(-c3cccc(C)c3)nn12 (stereo not given),inactive: 16.1%
12,COc1cc(C(=O)NCC2CCCO2)ccc1OCc1ccccc1 (stereo not given),inconclusive: 32.5%
13,CCc1ccc(C2=Nn3c(nnc3-c3cccs3)SC2)cc1,inconclusive: 43.5%
14,O=C(NCCC1=CCCCC1)C1CCN(c2nnc(-n3cccc3)s2)CC1,inconclusive: 33.6%
15,COc1ccc(NC(=O)c2ccc(Br)c(S(=O)(=O)N3CCOCC3)c2)cc1,active: 98.3%
16,COc1cc([C@H]2c3c(cc(OC)c(O)c3OC)C[C@@H](CO)[C@@H]2CO[C@@H]2O[C@H](CO)[C@@H](O)[C@H](O)[C@H]2O)cc(OC)c1O,inactive: -2.98%
17,O=C(O)c1ccccc1NS(=O)(=O)c1cccc(-n2sc3ccccc3c2=O)c1,inactive: 1.29%
18,N#C/C(=C/c1ccc(N2CCCCC2)o1)c1cccc(F)c1,inconclusive: 31.4%
19,O=CN/N=C/c1c(O)ccc2ccccc12,inactive: -1.89%
20,CCC(C)COC(=O)C(C#N)c1nc2ccccc2nc1N1CCCCC1 (stereo not given),inconclusive: 37.2%
21,COc1ccccc1CNC(=O)Cc1ccc(OC)c(OC)c1,inconclusive: 41.8%

# — PubChem BioAssay AID540275 (National Center for Advancing Translational Sciences (NCATS), 2011)
